{"source": "the supplement of paper PMC12889115", "system": "Salmonella enterica serovar Typhimurium SL1344", "assay": "bacterial growth OD600 after 18 h with compound and polymyxin B; higher = more bacterial growth (less inhibition)", "details": "50 µM, Mueller-Hinton broth", "note": "The list shows a part of the results. These are raw signals, not scaled to a control.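 Primary screen: polymyxin B was added at a level permeabilizing Salmonella outer membranes while sparing inner membranes. DMSO wells, both with and without polymyxin B, established maximum growth. Plate-to-plate variation meant each plate was ranked on its own, and the lowest-OD600 compounds were selected as hits.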", "data": [{"smiles": "Cc1cc(C(=O)N2CCc3[nH]nc(-c4ccc(Cl)cc4)c3C2)n(C)n1", "values": [{"measurement": "bacterial growth OD600", "setting": "polymyxin B 0.75 µg/mL", "value": 0.494}]}, {"smiles": "COC1CCCN(C(=O)c2cc(COc3ccc4c(c3)CCCC4)on2)C1", "note": "(configuration not stated)", "values": [{"measurement": "bacterial growth OD600", "setting": "polymyxin B 1 µg/mL", "value": 0.952}]}, {"smiles": "Cc1ccccc1CCC1CCCN(C(=O)c2cc(=O)n(C)c(=O)n2C)C1", "note": "(configuration not stated)", "values": [{"measurement": "bacterial growth OD600", "setting": "polymyxin B 0.75 µg/mL", "value": 0.682}]}, {"smiles": "COc1ccc(-c2noc(CN3CCCC(c4ccccc4)C3)n2)c(OC)c1OC", "note": "(configuration not stated)", "values": [{"measurement": "bacterial growth OD600", "setting": "polymyxin B 1 µg/mL", "value": 1.12}]}, {"smiles": "O=C1CCC(CCNCCOc2ccc(F)cc2)N1Cc1nc(-c2ccccc2)cs1", "note": "(configuration not stated)", "values": [{"measurement": "bacterial growth OD600", "setting": "polymyxin B 0.75 µg/mL", "value": 0.815}]}, {"smiles": "Cc1ccoc1C(=O)N1CCC(C2CCN(c3ncccn3)CC2)C1", "note": "(configuration not stated)", "values": [{"measurement": "bacterial growth OD600", "setting": "polymyxin B 0.75 µg/mL", "value": 0.842}]}, {"smiles": "C=CCC(=O)N1CCc2onc(-c3ccc(F)c(F)c3)c2C1", "values": [{"measurement": "bacterial growth OD600", "setting": "polymyxin B 0.75 µg/mL", "value": 0.918}]}, {"smiles": "OCC1(Cc2ccccc2)CCCN(Cc2cnn(-c3ccccc3Cl)c2)C1", "note": "(configuration not stated)", "values": [{"measurement": "bacterial growth OD600", "setting": "polymyxin B 1 µg/mL", "value": 0.847}]}, {"smiles": "Cc1csc(SCC(=O)N2CCc3c(cnc(C)c3CNC(=O)c3ccccc3F)C2)n1", "values": [{"measurement": "bacterial growth OD600", "setting": "polymyxin B 0.75 µg/mL", "value": 0.82}]}, {"smiles": "O=C(NCC1(O)CCCCC1)c1coc(CN2CCN(C/C=C/c3ccccc3)CC2)n1", "values": [{"measurement": "bacterial growth OD600", "setting": "polymyxin B 1 µg/mL", "value": 0.888}]}, {"smiles": "O=C(c1cccc(F)c1)N1CCC(C2(c3ccccn3)NC(=O)N(CCc3cccs3)C2=O)CC1", "note": "(configuration not stated)", "values": [{"measurement": "bacterial growth OD600", "setting": "polymyxin B 0.75 µg/mL", "value": 0.71}]}, {"smiles": "COc1ccc(CNC(=O)CCC2CCCN(C(=O)/C=C/c3ccccn3)C2)c(OC)c1", "note": "(configuration not stated)", "values": [{"measurement": "bacterial growth OD600", "setting": "polymyxin B 0.75 µg/mL", "value": 0.802}]}, {"smiles": "CC(=O)c1ccc(C(=O)NCC2CC(Cc3ccc(F)cc3)=NO2)cc1", "note": "(configuration not stated)", "values": [{"measurement": "bacterial growth OD600", "setting": "polymyxin B 0.75 µg/mL", "value": 0.747}]}, {"smiles": "COCCNC(=O)c1cccc(OC2CCN(Cc3ccc(C(=O)OC)cc3)CC2)c1", "values": [{"measurement": "bacterial growth OD600", "setting": "polymyxin B 0.75 µg/mL", "value": 1.01}]}, {"smiles": "O=C(Nc1cccc(-n2cccn2)c1)C1CCCN1CCCC(F)(F)F", "note": "(configuration not stated)", "values": [{"measurement": "bacterial growth OD600", "setting": "polymyxin B 0.75 µg/mL", "value": 0.766}]}, {"smiles": "O=C(NCC1CCCN(C(=O)C2CCOCC2)C1)c1ccc(-c2ccccc2)cc1", "note": "(configuration not stated)", "values": [{"measurement": "bacterial growth OD600", "setting": "polymyxin B 1 µg/mL", "value": 0.92}]}, {"smiles": "COCCCNc1nc2nonc2nc1N1CCN(Cc2ccccc2OC)CC1", "values": [{"measurement": "bacterial growth OD600", "setting": "polymyxin B 1 µg/mL", "value": 1.12}]}, {"smiles": "COC(=O)CSc1ncc(-c2ccc(F)cc2)c(C2CCCN(C(=O)c3csc(C)n3)C2)n1", "note": "(configuration not stated)", "values": [{"measurement": "bacterial growth OD600", "setting": "polymyxin B 0.75 µg/mL", "value": 0.511}]}, {"smiles": "COc1ccc(CCN2C(=O)O[C@@H]3CN(c4nc(OC)cc(OC)n4)C[C@@H]32)cc1", "values": [{"measurement": "bacterial growth OD600", "setting": "polymyxin B 1 µg/mL", "value": 0.877}]}, {"smiles": "O=C1CCC(C(=O)N2CCC3(CCCN(CCCc4ccccc4)C3)C2)=NN1", "note": "(configuration not stated)", "values": [{"measurement": "bacterial growth OD600", "setting": "polymyxin B 1 µg/mL", "value": 0.864}]}, {"smiles": "O=C(CC1CCCC1)N1CCC2(CCCN(Cc3ccccc3F)C2=O)C1", "note": "(configuration not stated)", "values": [{"measurement": "bacterial growth OD600", "setting": "polymyxin B 1 µg/mL", "value": 0.941}]}, {"smiles": "COc1ccccc1CN1CCc2c([nH]c3ccccc23)C1c1cccc(O)c1", "note": "(configuration not stated)", "values": [{"measurement": "bacterial growth OD600", "setting": "polymyxin B 0.75 µg/mL", "value": -0.002}]}, {"smiles": "O=C(CCC1CCCN(C(=O)Cc2ccsc2)C1)NCc1ccccc1Cl", "note": "(configuration not stated)", "values": [{"measurement": "bacterial growth OD600", "setting": "polymyxin B 1 µg/mL", "value": 0.929}]}, {"smiles": "CCC(C)NC(=O)N1CCc2[nH]nc(-c3ccc(Cl)cc3)c2C1", "note": "(configuration not stated)", "values": [{"measurement": "bacterial growth OD600", "setting": "polymyxin B 0.75 µg/mL", "value": 0.732}]}, {"smiles": "Cc1ccccc1CC(=O)N1CCC2(CC1)CC2C(=O)NCCCc1ccccc1", "note": "(configuration not stated)", "values": [{"measurement": "bacterial growth OD600", "setting": "polymyxin B 0.75 µg/mL", "value": 0.011}]}, {"smiles": "CC(C)c1nc2cccnc2n1C1CCN(C(=O)C2CCCCN2C)CC1", "note": "(configuration not stated)", "values": [{"measurement": "bacterial growth OD600", "setting": "polymyxin B 0.75 µg/mL", "value": 0.863}]}, {"smiles": "CCn1ccnc1CN1CCCC(CCC(=O)Nc2ccc(OC)cc2C)C1", "note": "(configuration not stated)", "values": [{"measurement": "bacterial growth OD600", "setting": "polymyxin B 1 µg/mL", "value": 0.961}]}, {"smiles": "O=C(Cc1cn2ccsc2n1)NC1CCCN(C2CCCCCC2)C1", "note": "(configuration not stated)", "values": [{"measurement": "bacterial growth OD600", "setting": "polymyxin B 1 µg/mL", "value": 0.949}]}, {"smiles": "CC(=O)c1ccc(C(=O)N2CCCC(CCc3ccccc3)C2)s1", "note": "(configuration not stated)", "values": [{"measurement": "bacterial growth OD600", "setting": "polymyxin B 0.75 µg/mL", "value": 0.183}]}, {"smiles": "O=C(CCC1CCN(Cc2ccc(CO)o2)CC1)Nc1ccccc1Cl", "values": [{"measurement": "bacterial growth OD600", "setting": "polymyxin B 1 µg/mL", "value": 0.814}]}, {"smiles": "CC(=O)N1CCCC(C(=O)Nc2cccc(-c3cc4ccccc4[nH]3)c2)C1", "note": "(configuration not stated)", "values": [{"measurement": "bacterial growth OD600", "setting": "polymyxin B 0.75 µg/mL", "value": 0.971}]}, {"smiles": "O=C(CCN1CCCCO1)N1CCCC(CCc2ccc(F)c(F)c2)C1", "note": "(configuration not stated)", "values": [{"measurement": "bacterial growth OD600", "setting": "polymyxin B 0.75 µg/mL", "value": 0.007}]}]}
